According to the supplement of paper PMC10849652:
Some of the results follow.

By UniProt entry, the sequences of proteins in these tests, tags left out. Where a name states a change or a piece, a line headed by the entry shows the natural chain unless it says otherwise.
UniProt P40121: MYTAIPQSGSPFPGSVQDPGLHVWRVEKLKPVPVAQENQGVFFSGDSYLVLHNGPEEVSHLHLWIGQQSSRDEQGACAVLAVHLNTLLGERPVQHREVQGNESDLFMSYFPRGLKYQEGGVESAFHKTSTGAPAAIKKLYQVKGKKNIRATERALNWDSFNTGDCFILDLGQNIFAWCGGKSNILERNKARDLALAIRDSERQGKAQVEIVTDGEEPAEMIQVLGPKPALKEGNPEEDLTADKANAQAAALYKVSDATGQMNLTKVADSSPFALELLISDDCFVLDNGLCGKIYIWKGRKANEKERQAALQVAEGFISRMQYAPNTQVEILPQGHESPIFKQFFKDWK
UniProt Q07021: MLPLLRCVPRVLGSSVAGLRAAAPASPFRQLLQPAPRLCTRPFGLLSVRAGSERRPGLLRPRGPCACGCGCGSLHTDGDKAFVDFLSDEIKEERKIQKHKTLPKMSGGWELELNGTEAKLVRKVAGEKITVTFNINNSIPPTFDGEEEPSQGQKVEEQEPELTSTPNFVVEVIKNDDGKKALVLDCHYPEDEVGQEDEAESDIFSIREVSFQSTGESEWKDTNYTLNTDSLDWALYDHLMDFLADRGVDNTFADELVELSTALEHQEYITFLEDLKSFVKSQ
UniProt Q9H3H3: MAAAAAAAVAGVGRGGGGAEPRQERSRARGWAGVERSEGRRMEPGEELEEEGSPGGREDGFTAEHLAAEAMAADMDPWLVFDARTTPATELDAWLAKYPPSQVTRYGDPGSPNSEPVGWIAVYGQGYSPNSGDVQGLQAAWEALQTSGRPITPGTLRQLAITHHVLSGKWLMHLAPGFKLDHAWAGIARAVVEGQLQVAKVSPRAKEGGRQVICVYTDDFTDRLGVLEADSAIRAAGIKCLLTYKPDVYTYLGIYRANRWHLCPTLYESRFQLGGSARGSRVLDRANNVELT
UniProt O43852: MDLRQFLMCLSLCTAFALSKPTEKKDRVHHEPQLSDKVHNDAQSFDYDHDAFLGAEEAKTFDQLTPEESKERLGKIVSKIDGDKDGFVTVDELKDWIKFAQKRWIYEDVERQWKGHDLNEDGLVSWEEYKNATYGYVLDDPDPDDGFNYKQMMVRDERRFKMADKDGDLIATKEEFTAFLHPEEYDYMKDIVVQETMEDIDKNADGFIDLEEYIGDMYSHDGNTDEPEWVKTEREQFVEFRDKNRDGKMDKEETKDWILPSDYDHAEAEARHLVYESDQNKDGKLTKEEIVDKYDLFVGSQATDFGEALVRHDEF
UniProt Q8IXQ3: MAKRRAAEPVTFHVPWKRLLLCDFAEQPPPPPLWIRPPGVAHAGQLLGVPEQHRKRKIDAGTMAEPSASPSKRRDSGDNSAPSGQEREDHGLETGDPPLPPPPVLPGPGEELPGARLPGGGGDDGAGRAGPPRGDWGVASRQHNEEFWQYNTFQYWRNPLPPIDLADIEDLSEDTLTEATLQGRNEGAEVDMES
UniProt Q9BWL3: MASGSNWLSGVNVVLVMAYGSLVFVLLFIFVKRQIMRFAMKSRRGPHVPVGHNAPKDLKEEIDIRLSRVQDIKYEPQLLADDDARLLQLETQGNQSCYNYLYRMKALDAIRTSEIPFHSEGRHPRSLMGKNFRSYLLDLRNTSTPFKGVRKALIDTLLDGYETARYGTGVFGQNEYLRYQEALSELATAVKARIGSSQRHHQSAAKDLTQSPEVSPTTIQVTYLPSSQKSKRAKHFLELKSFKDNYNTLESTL
UniProt Q9NZ63: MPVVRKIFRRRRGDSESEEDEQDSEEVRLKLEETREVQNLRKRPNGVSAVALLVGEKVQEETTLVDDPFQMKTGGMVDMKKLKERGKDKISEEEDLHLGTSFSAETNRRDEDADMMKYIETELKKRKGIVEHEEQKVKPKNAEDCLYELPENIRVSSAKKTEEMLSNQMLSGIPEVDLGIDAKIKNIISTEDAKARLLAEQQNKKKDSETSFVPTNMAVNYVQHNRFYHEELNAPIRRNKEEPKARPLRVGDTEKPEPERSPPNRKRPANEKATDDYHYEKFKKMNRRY
UniProt Q9UFG5: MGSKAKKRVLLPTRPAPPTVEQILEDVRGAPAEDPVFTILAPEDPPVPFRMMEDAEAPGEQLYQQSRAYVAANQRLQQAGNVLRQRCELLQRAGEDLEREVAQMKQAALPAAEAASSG
UniProt Q9BSJ5: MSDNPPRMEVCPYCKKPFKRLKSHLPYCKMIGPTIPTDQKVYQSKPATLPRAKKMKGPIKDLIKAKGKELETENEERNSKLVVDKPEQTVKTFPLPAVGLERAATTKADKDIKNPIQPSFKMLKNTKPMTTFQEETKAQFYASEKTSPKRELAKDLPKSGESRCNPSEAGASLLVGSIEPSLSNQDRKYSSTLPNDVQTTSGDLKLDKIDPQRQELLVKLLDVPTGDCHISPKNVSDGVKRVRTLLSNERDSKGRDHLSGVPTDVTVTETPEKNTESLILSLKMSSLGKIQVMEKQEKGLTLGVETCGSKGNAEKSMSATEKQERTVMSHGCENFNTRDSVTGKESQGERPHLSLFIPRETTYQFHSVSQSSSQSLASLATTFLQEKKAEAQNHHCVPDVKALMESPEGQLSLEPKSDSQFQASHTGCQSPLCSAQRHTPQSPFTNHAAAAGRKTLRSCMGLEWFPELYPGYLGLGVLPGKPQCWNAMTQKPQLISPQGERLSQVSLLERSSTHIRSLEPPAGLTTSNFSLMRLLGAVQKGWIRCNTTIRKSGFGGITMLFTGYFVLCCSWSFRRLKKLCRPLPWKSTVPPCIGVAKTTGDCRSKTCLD
UniProt O14523: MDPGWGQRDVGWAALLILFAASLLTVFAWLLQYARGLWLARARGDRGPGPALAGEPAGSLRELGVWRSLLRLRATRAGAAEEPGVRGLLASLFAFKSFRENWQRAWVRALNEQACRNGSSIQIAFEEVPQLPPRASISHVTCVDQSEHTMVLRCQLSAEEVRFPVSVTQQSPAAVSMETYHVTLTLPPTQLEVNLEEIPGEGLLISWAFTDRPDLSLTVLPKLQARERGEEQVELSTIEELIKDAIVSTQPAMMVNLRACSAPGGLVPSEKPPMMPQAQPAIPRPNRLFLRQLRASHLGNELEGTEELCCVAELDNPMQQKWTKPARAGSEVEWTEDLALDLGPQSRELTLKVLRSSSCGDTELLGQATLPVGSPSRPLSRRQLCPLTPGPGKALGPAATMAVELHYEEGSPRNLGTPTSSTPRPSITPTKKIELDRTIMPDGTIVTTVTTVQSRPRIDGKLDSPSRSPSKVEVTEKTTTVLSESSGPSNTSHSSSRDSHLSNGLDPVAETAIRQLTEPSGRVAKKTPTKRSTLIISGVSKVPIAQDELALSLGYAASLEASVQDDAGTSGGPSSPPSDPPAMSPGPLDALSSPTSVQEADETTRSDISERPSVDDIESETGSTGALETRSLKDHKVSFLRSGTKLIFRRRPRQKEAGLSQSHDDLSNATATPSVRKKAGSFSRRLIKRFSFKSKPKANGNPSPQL
UniProt Q96B23: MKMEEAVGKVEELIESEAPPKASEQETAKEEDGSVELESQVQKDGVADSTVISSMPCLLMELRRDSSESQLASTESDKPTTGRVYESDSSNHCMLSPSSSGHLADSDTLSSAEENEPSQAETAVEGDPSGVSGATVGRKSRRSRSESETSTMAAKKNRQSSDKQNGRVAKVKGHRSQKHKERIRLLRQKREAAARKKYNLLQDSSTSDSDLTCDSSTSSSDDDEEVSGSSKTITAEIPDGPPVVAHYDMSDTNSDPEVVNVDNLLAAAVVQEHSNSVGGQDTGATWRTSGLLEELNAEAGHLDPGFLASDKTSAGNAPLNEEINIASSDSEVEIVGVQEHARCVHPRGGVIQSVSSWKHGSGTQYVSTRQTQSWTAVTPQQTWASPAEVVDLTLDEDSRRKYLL
UniProt Q6P1S2: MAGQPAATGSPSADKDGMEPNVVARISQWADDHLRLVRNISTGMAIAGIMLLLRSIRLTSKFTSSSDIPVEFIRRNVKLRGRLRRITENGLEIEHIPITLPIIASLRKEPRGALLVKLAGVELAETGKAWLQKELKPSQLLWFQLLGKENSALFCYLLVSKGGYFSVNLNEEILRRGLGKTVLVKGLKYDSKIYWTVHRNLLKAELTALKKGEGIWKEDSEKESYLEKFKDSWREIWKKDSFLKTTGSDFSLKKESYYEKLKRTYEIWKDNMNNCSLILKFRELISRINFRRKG
UniProt A6NDU8: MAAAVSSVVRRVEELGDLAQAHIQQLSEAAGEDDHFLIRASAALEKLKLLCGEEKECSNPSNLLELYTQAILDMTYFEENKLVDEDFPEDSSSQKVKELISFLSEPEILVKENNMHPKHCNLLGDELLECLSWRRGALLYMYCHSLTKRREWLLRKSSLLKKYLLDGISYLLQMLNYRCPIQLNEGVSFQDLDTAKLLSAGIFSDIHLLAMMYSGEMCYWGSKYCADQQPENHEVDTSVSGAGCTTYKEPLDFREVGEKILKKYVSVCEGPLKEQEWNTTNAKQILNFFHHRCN
UniProt Q6UWU4: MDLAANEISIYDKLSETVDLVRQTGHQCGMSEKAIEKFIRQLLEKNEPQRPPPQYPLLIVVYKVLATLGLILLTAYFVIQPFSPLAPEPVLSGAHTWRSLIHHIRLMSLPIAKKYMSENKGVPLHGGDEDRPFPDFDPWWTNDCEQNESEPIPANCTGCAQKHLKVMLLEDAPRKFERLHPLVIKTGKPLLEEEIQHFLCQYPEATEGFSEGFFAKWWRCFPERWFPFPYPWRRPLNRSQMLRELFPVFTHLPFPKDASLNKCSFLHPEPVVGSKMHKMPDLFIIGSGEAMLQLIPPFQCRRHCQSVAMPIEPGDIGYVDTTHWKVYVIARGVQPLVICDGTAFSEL
UniProt Q8N8R5: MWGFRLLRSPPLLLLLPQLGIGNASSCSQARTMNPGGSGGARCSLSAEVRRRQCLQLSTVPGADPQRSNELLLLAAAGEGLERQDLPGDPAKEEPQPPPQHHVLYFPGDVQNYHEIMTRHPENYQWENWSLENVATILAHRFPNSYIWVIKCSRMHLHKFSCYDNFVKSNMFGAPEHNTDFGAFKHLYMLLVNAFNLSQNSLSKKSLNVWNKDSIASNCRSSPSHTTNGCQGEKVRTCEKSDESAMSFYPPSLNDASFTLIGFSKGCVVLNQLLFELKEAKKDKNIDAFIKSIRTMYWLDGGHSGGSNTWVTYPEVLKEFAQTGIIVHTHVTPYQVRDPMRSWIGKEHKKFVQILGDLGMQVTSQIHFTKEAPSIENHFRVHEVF
UniProt Q8WVQ1: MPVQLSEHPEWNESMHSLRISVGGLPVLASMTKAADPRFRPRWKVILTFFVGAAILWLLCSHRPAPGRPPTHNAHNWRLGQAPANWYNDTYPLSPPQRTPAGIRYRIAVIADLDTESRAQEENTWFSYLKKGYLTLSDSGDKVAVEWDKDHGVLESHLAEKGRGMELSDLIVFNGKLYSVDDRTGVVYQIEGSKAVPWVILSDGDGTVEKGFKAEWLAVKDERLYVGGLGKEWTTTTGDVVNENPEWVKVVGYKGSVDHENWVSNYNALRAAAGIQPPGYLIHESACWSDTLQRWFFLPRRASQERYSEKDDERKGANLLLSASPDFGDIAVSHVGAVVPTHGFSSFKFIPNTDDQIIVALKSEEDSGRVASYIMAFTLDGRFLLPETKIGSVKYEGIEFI

Tests used:
Test in all cases: log2 fold change, soluble protein after heating vs DMSO (PISA); higher = thermal stabilisation; K562 cells, 10 uM, 30 min; active = over 0.2 and 3.5 SD of the protein, either way, in both replicates (recomputed)
[1] = compound: CS(=O)(=O)c1ccc(-c2cnc(N)c(C(=O)Nc3ccccc3)n2)cc1
Outline: (§1)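 Soluble protein was quantified by TMTpro 16plex LC-MS/MS after channel sums were equalised. It was obtained as the supernatant after 21,000xg for 90 min from pooled aliquots of K562 cells (2×10^6 cells/mL, 10 μM compound, 30 min) heated for 3 min across 48°C-58°C and extracted in PBS with 0.5% NP-40 at 4°C. Thermal stability values are relative to control samples and come from duplicates. They are given as log2 fold changes.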

crizotinib = compound: C[C@@H](Oc1cc(-c2cnn(C3CCNCC3)c2)cnc1N)c1c(Cl)ccc(F)c1Cl [crizotinib]
Outline: as §1

[2] = compound: C[C@@H]1COCCN1C2=NC(=NC(=C2)C3(CC3)S(=O)(=O)C)C4=C5C=CNC5=CC=C4
Outline: as §1

[3] = compound: C[C@H](C1=CC=C(C=C1)C(=O)NC2=C3C=CNC3=NC=C2)N
Outline: as §1

duvelisib = compound: C[C@H](Nc1ncnc2nc[nH]c12)c1cc2cccc(Cl)c2c(=O)n1-c1ccccc1 [duvelisib]
Outline: as §1

gandotinib = compound: Cc1cc(Nc2cc(CN3CCOCC3)c3nc(C)c(Cc4ccc(Cl)cc4F)n3n2)n[nH]1 [gandotinib]
Outline: as §1

tozasertib = compound: Cc1cc(Nc2cc(N3CCN(C)CC3)nc(Sc3ccc(NC(=O)C4CC4)cc3)n2)n[nH]1 [tozasertib]
Outline: as §1

[4] = compound: Cc1cc(SCc2sc(-c3ccc(C(F)(F)F)cc3)nc2C)ccc1OCC(=O)O
Outline: as §1

doramapimod = compound: Cc1ccc(-n2nc(C(C)(C)C)cc2NC(=O)Nc2ccc(OCCN3CCOCC3)c3ccccc23)cc1 [doramapimod]
Outline: as §1

ispinesib = compound: Cc1ccc(C(=O)N(CCCN)[C@@H](c2nc3cc(Cl)ccc3c(=O)n2Cc2ccccc2)C(C)C)cc1 [ispinesib]
Outline: as §1

bafetinib = compound: Cc1ccc(NC(=O)c2ccc(CN3CC[C@H](N(C)C)C3)c(C(F)(F)F)c2)cc1Nc1nccc(-c2cncnc2)n1 [bafetinib]
Outline: as §1

[5] = compound: Cc1cccc(CC(=O)N2CCc3c2ccc(-c2cn(C)c4ncnc(N)c24)c3F)n1
Outline: as §1

nilotinib = compound: Cc1cn(-c2cc(NC(=O)c3ccc(C)c(Nc4nccc(-c5cccnc5)n4)c3)cc(C(F)(F)F)c2)cn1 [nilotinib]
Outline: as §1

[6] = compound: Cc1nc(Nc2n[nH]c3c2CN(C(=O)N[C@H](CN(C)C)c2ccccc2)C3(C)C)c2sccc2n1
Outline: as §1

dasatinib = compound: Cc1nc(Nc2ncc(C(=O)Nc3c(C)cccc3Cl)s2)cc(N2CCN(CCO)CC2)n1 [dasatinib]
Outline: as §1

[7] = compound: Cc1ncc(-c2ccnc(Nc3ccc(S(C)(=O)=O)cc3)n2)n1C(C)C
Outline: as §1

[8] = compound: Cn1cc(-c2ccc3c(c2)CCN3C(=O)Cc2cccc(C(F)(F)F)c2)c2c(N)ncnc21
Outline: as §1

[9] = compound: Cn1cc(-c2ccc3nnc(C(F)(F)c4ccc5ncccc5c4)n3n2)cn1
Outline: as §1

tipifarnib = compound: Cn1cncc1[C@@](N)(c1ccc(Cl)cc1)c1ccc2c(c1)c(-c1cccc(Cl)c1)cc(=O)n2C [tipifarnib]
Outline: as §1

mubritinib = compound: FC(F)(F)c1ccc(/C=C/c2nc(COc3ccc(CCCCn4ccnn4)cc3)co2)cc1 [mubritinib]
Outline: as §1

Measured: log2 fold change

CAPG (UniProt P40121)
inactive: [1] -0.038 | crizotinib 0.039 | [2] 0.017 | [3] -0.074 | duvelisib 0.015 | gandotinib -0.044 | tozasertib 0.064 | [4] 0.04 | doramapimod 0.008 | ispinesib 0.058 | bafetinib 0.003 | [5] 0.041 | nilotinib 0.013 | [6] -0.08 | dasatinib -0.046 | [7] 0 | [8] 0.04 | [9] 0.005 | tipifarnib 0.024 | mubritinib 0.006

C1QBP (UniProt Q07021)
inactive: [1] 0.002 | crizotinib 0.081 | [2] 0.035 | [3] -0.036 | duvelisib 0.023 | gandotinib -0.034 | tozasertib -0.078 | [4] -0.001 | doramapimod -0.045 | ispinesib 0.006 | bafetinib 0.023 | [5] 0.01 | nilotinib 0.007 | [6] 0.025 | dasatinib -0.014 | [7] -0.067 | [8] 0.029 | [9] 0.008 | tipifarnib 0.008 | mubritinib -0.015

C11orf68 (UniProt Q9H3H3)
inactive: [1] 0.04 | crizotinib 0.02 | [2] -0.028 | [3] -0.064 | duvelisib 0.008 | gandotinib -0.1 | tozasertib -0.025 | [4] 0.047 | doramapimod -0.038 | ispinesib -0.023 | bafetinib -0.083 | [5] 0.017 | nilotinib -0.046 | [6] -0.09 | dasatinib -0.06 | [7] -0.028 | [8] 0.023 | [9] -0.011 | tipifarnib -0.05 | mubritinib 0.028

CALU isoform 3 (UniProt O43852)
inactive: [1] 0.014 | crizotinib 0.04 | [2] -0.009 | [3] -0.009 | duvelisib 0.018 | gandotinib 0.006 | tozasertib -0.002 | [4] -0.05 | doramapimod -0.007 | ispinesib 0 | bafetinib -0.059 | [5] -0.055 | nilotinib 0.005 | [6] 0.003 | dasatinib 0.065 | [7] -0.037 | [8] 0.004 | [9] -0.037 | tipifarnib 0.087 | mubritinib 0.025

C9orf40 (UniProt Q8IXQ3)
inactive: [1] -0.047 | crizotinib 0.076 | [2] -0.079 | [3] -0.055 | duvelisib 0.106 | gandotinib 0.031 | tozasertib -0.041 | [4] -0.023 | doramapimod 0.054 | ispinesib 0.012 | bafetinib -0.144 | [5] 0.213 | nilotinib -0.01 | [6] 0.025 | dasatinib -0.055 | [7] -0.093 | [8] 0.086 | [9] 0.032 | tipifarnib -0.087 | mubritinib 0.002

C1orf43 (UniProt Q9BWL3)
inactive: [1] 0.171

C9orf78 (UniProt Q9NZ63)
inactive: [1] -0.023 | crizotinib 0.04 | [2] -0.026 | [3] -0.041 | duvelisib 0.005 | gandotinib 0.026 | tozasertib -0.01 | [4] -0.063 | doramapimod -0.016 | ispinesib 0.041 | bafetinib -0.084 | [5] -0.053 | nilotinib 0.005 | [6] -0.017 | dasatinib 0.071 | [7] -0.002 | [8] 0.002 | [9] -0.016 | tipifarnib 0.016 | mubritinib 0.025

C19orf25 (UniProt Q9UFG5)
inactive: [1] 0.059 | crizotinib 0.07 | [2] 0.124 | [3] -0.083 | duvelisib 0.092 | gandotinib 0.074 | tozasertib 0.051 | [4] 0 | doramapimod -0.06 | ispinesib 0.175 | bafetinib -0.068 | [5] -0.128 | nilotinib -0.018 | [6] -0.009 | dasatinib 0.071 | [7] -0.004 | [8] 0.128 | [9] 0.172 | tipifarnib 0.073 | mubritinib 0.012

C17orf80 (UniProt Q9BSJ5)
inactive: [1] -0.08 | crizotinib -0.049 | [2] -0.129 | [3] -0.004 | duvelisib -0.025 | gandotinib 0.072 | tozasertib -0.083 | [4] 0.015 | doramapimod 0.005 | ispinesib 0.005 | bafetinib -0.019 | [5] -0.03 | nilotinib -0.018 | [6] 0.023 | dasatinib -0.055 | [7] 0.128 | [8] 0.183 | [9] 0.006 | tipifarnib 0.106 | mubritinib 0.209

C2CD2L (UniProt O14523)
inactive: [1] 0.114 | crizotinib -0.029 | [2] 0.024 | [3] -0.009 | duvelisib 0.016 | gandotinib 0.009 | tozasertib -0.047 | [4] -0.027 | doramapimod 0.035 | ispinesib -0.084 | bafetinib -0.069 | [5] -0.029 | nilotinib 0.043 | [6] -0.079 | dasatinib 0.085 | [7] -0.05 | [8] 0.028 | [9] 0.027 | tipifarnib -0.005 | mubritinib 0.016

CALU isoform 4 (UniProt O43852)
inactive: [1] 0.009 | crizotinib 0.111 | [2] 0.056 | [3] -0.031 | duvelisib 0.046 | gandotinib -0.055 | tozasertib -0.016 | [4] -0.031 | doramapimod -0.022 | ispinesib 0.04 | bafetinib -0.033 | [5] -0.002 | nilotinib 0 | [6] 0.016 | dasatinib 0.031 | [7] -0.005 | [8] -0.023 | [9] 0.06 | tipifarnib -0.034 | mubritinib 0.011

C18orf25 (UniProt Q96B23)
inactive: [1] 0.011 | crizotinib 0.003 | [2] 0.045 | [3] -0.046 | duvelisib -0.086 | gandotinib -0.014 | tozasertib -0.01 | [4] -0.111 | doramapimod -0.02 | ispinesib 0 | bafetinib -0.089 | [5] -0.059 | nilotinib -0.055 | [6] -0.045 | dasatinib 0.031 | [7] -0.049 | [8] 0.024 | [9] -0.059 | tipifarnib 0.02 | mubritinib 0.063

C3orf33 (UniProt Q6P1S2)
inactive: [1] -0.04 | crizotinib 0.042 | [2] 0.059 | [3] 0.05 | duvelisib 0.028 | gandotinib 0 | tozasertib -0.018 | [4] 0.031 | doramapimod -0.009 | ispinesib -0.19 | bafetinib 0.207 | [5] -0.101 | nilotinib -0.005 | [6] 0.01 | dasatinib -0.039 | [7] -0.072 | [8] -0.034 | [9] -0.017 | tipifarnib 0.094 | mubritinib -0.057

Copied from above (3 entries):
C1QBP (UniProt Q07021)
inactive: [1] 0.002 | crizotinib 0.081 | [2] 0.035 | [3] -0.036 | duvelisib 0.023 | gandotinib -0.034 | tozasertib -0.078 | [4] -0.001 | doramapimod -0.045 | ispinesib 0.006 | bafetinib 0.023 | [5] 0.01 | nilotinib 0.007 | [6] 0.025 | dasatinib -0.014 | [7] -0.067 | [8] 0.029 | [9] 0.008 | tipifarnib 0.008 | mubritinib -0.015

C11orf68 (UniProt Q9H3H3)
inactive: [1] 0.04 | crizotinib 0.02 | [2] -0.028 | [3] -0.064 | duvelisib 0.008 | gandotinib -0.1 | tozasertib -0.025 | [4] 0.047 | doramapimod -0.038 | ispinesib -0.023 | bafetinib -0.083 | [5] 0.017 | nilotinib -0.046 | [6] -0.09 | dasatinib -0.06 | [7] -0.028 | [8] 0.023 | [9] -0.011 | tipifarnib -0.05 | mubritinib 0.028

CALU isoform 3 (UniProt O43852)
inactive: [1] 0.014 | crizotinib 0.04 | [2] -0.009 | [3] -0.009 | duvelisib 0.018 | gandotinib 0.006 | tozasertib -0.002 | [4] -0.05 | doramapimod -0.007 | ispinesib 0 | bafetinib -0.059 | [5] -0.055 | nilotinib 0.005 | [6] 0.003 | dasatinib 0.065 | [7] -0.037 | [8] 0.004 | [9] -0.037 | tipifarnib 0.087 | mubritinib 0.025

The listing continues:

C5orf51 (UniProt A6NDU8)
inactive: [1] 0.054 | crizotinib -0.028 | [2] 0.066 | [3] -0.013 | duvelisib 0.065 | gandotinib -0.184 | tozasertib 0.045 | [4] 0.013 | doramapimod -0.083 | ispinesib -0.045 | bafetinib -0.044 | [5] 0.038 | nilotinib -0.139 | [6] -0.034 | dasatinib -0.02 | [7] -0.071 | [8] 0.026 | [9] -0.008 | tipifarnib -0.022 | mubritinib 0.03

C6orf89 isoform 2 (UniProt Q6UWU4)
inactive: [1] -0.042 | crizotinib 0.084 | [2] 0.07 | [3] -0.036 | duvelisib 0.09 | gandotinib 0.032 | tozasertib -0.013 | [4] -0.043 | doramapimod -0.033 | ispinesib -0.02 | bafetinib -0.053 | [5] -0.086 | nilotinib 0.01 | [6] -0.027 | dasatinib -0.026 | [7] 0.033 | [8] 0.053 | [9] 0.007 | tipifarnib 0.072 | mubritinib 0.017

C2orf69 (UniProt Q8N8R5)
inactive: [1] -0.121 | crizotinib 0.043 | [2] 0.035 | [3] -0.003 | duvelisib -0.011 | gandotinib -0.025 | tozasertib 0.015 | [4] 0.019 | doramapimod 0.012 | ispinesib 0.134 | bafetinib -0.005 | [5] -0.036 | nilotinib -0.085 | [6] 0.027 | dasatinib 0.014 | [7] -0.004 | [8] -0.041 | [9] -0.089 | tipifarnib -0.034 | mubritinib 0.051

CANT1 (UniProt Q8WVQ1)
inactive: [1] -0.01 | crizotinib -0.014 | [2] -0.001 | [3] 0.029 | duvelisib 0.036 | gandotinib -0.062 | tozasertib 0.005 | [4] -0.039 | doramapimod -0.037 | ispinesib -0.005 | bafetinib -0.068 | [5] 0.016 | nilotinib -0.023 | [6] 0.007 | dasatinib -0.005 | [7] 0.07 | [8] 0.022 | [9] 0.007 | tipifarnib -0.008 | mubritinib -0.034
